# The supplement of paper PMC6411743
# ± gives the standard deviation of the averaged measurements. This is one part of the list.
# Target: T1, ZHX2 (UniProt Q9Y6X8)
# T1 sequence (whole entry): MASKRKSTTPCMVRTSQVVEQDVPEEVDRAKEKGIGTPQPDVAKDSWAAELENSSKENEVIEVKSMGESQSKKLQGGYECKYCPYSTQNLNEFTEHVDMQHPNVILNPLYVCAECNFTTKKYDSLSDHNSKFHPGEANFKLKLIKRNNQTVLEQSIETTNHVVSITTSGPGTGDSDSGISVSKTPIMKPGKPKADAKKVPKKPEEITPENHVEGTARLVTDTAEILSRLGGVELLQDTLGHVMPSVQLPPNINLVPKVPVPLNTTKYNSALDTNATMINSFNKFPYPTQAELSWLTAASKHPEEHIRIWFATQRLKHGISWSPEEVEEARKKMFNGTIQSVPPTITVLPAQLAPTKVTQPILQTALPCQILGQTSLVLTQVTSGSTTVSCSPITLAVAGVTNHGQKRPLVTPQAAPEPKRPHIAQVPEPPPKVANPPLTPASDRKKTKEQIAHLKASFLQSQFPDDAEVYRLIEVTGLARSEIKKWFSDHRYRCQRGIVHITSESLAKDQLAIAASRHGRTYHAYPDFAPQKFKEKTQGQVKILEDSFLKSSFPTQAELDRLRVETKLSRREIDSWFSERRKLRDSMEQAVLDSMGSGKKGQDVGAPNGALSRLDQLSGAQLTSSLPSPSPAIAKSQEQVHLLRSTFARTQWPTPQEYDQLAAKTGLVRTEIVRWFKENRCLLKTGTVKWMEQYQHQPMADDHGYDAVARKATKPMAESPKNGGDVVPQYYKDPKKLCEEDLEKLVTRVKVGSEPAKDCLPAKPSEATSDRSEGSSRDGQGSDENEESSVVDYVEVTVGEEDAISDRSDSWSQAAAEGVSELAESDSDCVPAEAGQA
# Experiment: NP40-soluble protein abundance relative to vehicle (solubility fold change) (ratio); higher = more soluble protein in presence of GTP
# Method: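 Solubility proteome profiling in Jurkat crude lysate. Lysate was treated with Mg-GTP (0.1-10 mM) for 10 min at room temperature and 3 min at 37 °C, then solubilised with 0.8% NP40 and benzonase, followed by ultracentrifugation. Proteins were quantified by TMT10 LC-MS/MS; the value is the NP40-soluble abundance relative to the NP40-processed vehicle, from 3 independent experiments.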
smiles,measurement,setting,value
Nc1nc2c(ncn2[C@@H]2O[C@H](COP(=O)(O)OP(=O)(O)OP(=O)(O)O)[C@@H](O)[C@H]2O)c(=O)[nH]1 [guanosine triphosphate],NP40-soluble protein abundance,concentration: 0.1mM,0.999 ± 0.011
same,NP40-soluble protein abundance,concentration: 0.5mM,0.967 ± 0.04
same,NP40-soluble protein abundance,concentration: 1mM,0.995 ± 0.013
same,NP40-soluble protein abundance,concentration: 2mM,0.967 ± 0.069
same,NP40-soluble protein abundance,concentration: 4mM,0.993 ± 0.071
same,NP40-soluble protein abundance,concentration: 6mM,0.993 ± 0.047
same,NP40-soluble protein abundance,concentration: 8mM,1.01 ± 0.05
same,NP40-soluble protein abundance,concentration: 10mM,0.991 ± 0.075
